This assay concerns the target recombinant human CD55 (R&D Systems 2009-CD/CF) (human) (UniProt P08174). The assay is described as follows: indirect ELISA, recombinant human CD55 coated.

Protein sequences, listed by entry. Tags and fused reporters are not part of them. Residues count along the entry.
UniProt P08174, residues 35-353: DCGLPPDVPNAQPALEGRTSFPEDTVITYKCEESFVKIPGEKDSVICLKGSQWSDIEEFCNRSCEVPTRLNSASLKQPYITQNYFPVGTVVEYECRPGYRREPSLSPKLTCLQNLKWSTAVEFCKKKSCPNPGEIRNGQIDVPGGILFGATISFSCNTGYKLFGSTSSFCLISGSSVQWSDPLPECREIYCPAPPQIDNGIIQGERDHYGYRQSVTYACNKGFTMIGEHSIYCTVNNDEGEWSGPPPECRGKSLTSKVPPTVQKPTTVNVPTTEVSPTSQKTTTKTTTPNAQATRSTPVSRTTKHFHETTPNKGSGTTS

Results are given in words; binding and its absence hold for the method and conditions named. Some results given as binding are weak or reduced against the parent protein; the word gives no strength.

B1: 10H(L) (antibody, V domains shown)
VH: EVQLAESGGGLVQPGGSLRLSCAASGFTFSDRGMAWVRQAPGKGLEWVSGISSSGRYTYYAPAVKGRATISRDNSKNTLYLQMNSLRAEDTAVYYCAKNALAGGWHAAYIDAWGQGTTVTVSS
VL: SYELTQPPSVSVSPGQTASITCSGGGGSYGWYQQKPGQSPVTVIYWNDKRPSGIPERFSGSKSGNTATLTISGTQAMDEADYYCGGWDSSTYAIFGGGTKLTVL
For B1, the binding entry is listed as “binds”.

B2: 10H(F) (antibody, V domains shown)
VH: EVQLAESGGGLVQPGGSLRLSCAASGFTFSDRGMAWVRQAPGKGLEWVSGISSSGRYTYYAPAVKGRATISRDNSKNTLYLQMNSLRAEDTAVYYCAKNAFAGGWHAAYIDAWGQGTTVTVSS
VL: SYELTQPPSVSVSPGQTASITCSGGGGSYGWYQQKPGQSPVTVIYWNDKRPSGIPERFSGSKSGNTATLTISGTQAMDEADYYCGGWDSSTYAIFGGGTKLTVL
B2: the binding entry is “binds”.

B3: 10H(M) (antibody, V domains shown)
VH: EVQLAESGGGLVQPGGSLRLSCAASGFTFSDRGMAWVRQAPGKGLEWVSGISSSGRYTYYAPAVKGRATISRDNSKNTLYLQMNSLRAEDTAVYYCAKNAMAGGWHAAYIDAWGQGTTVTVSS
VL: SYELTQPPSVSVSPGQTASITCSGGGGSYGWYQQKPGQSPVTVIYWNDKRPSGIPERFSGSKSGNTATLTISGTQAMDEADYYCGGWDSSTYAIFGGGTKLTVL
Consider B3, for which the binding result is “binds”.

(Values after US20240141061A1, “NOVEL ANTIBODY AGAINST CD55 AND USE THEREOF” (SG MEDICAL INC, priority 2021, published 2024).)
